Test results taken from PubChem BioAssay AID743255 (National Center for Advancing Translational Sciences (NCATS), 2014).
About 910 (0.23%) of roughly 390,000 compounds were called active. This list was built around the results that the source calls inconclusive (neither active nor inactive); the mix of calls is not that of the screen. Calls follow the shape of the dose curve; as a rule, active = well fitted inhibition curve with a large enough effect; inconclusive = small, poorly fitted or top-dose-only effect; inactive = no such curve, though single readings can be large or run the other way. Potencies of inconclusive entries are doubtful fits and often do not repeat.

The chains behind the UniProt entries cited, without tags or fusion partners. Where a name states a change or a piece, a line headed by the entry shows the natural chain unless it says otherwise.
UniProt O94782: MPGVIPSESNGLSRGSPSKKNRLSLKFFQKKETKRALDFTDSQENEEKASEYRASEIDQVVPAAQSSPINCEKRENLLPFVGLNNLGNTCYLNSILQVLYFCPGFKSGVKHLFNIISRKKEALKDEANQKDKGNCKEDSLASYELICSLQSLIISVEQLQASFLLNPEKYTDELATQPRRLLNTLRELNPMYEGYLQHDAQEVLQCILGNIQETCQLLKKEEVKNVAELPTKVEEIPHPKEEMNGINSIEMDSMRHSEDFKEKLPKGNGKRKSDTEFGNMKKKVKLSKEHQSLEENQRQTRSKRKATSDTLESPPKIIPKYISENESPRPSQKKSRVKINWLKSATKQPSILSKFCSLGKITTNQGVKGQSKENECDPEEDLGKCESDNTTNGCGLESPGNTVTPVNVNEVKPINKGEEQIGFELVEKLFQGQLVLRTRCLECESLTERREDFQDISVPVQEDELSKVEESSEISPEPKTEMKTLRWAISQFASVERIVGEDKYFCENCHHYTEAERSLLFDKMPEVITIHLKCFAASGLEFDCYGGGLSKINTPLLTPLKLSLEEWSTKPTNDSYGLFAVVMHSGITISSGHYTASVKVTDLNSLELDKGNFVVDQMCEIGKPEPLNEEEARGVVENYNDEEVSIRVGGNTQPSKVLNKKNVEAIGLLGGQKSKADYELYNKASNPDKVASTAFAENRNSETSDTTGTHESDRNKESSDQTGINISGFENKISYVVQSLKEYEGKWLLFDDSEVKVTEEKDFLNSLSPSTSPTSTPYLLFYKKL

These molecules were tested against Ubiquitin carboxyl-terminal hydrolase 1 (Homo sapiens) (UniProt O94782) (assay: Inhibitors of USP1/UAF1: Primary Screen). Conditions: recombinant USP1/UAF1, Ub-Rhodamine cleavage fluorescence; activity change, negative = inhibition: at 57.1 µM (top of the series).
Method in brief: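 1 nM enzyme complex + cpd, 15 min RT; start with Ub-Rho 150nM final; kinetic fluorescence ex 480/em 540, 6 reads q60 s. Buffer 50mM HEPES pH 7.8, 0.5mM EDTA, 0.1 mg/ml BSA, 1mM TCEP, 0.01% Tween-20.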
% is scaled to controls: 0 for no effect and ±100 for the full control effect; potency is read from the fitted curve at half-maximal effect.
Also: nearly all actives have a fitted effect of over 60% in size.

Potency, inconclusive:
O=c1c(Oc2ccccc2)coc2cc(O)cc(O)c12 35.5 µM [inhibitor, partial curve], CN1CCN(C(=O)C2=C[C@@H](c3ccc4c(c3)OCO4)C[C@@H](OCc3ccc(CO)cc3)O2)CC1 50.1 µM [inhibitor, partial curve, poor fit], CCOC(=O)c1ccc(NC(=O)c2nc[nH]c2C(=O)N2CCN(c3ccccc3)CC2)cc1 0.282 µM [inhibitor, full curve, poor fit], COc1cc2c(cc1OC)C(c1ccc(F)cc1)N(c1ccccc1)C(=O)C2 (stereo not drawn) 39.8 µM [inhibitor, partial curve, poor fit], O=C1N/C(=N/NC(=O)c2cccc3ccccc23)S/C1=C\c1ccccc1OCc1ccccc1 31.6 µM [inhibitor, partial curve], COc1cccc(CNc2ncnc3c2nnn3C)c1 50.1 µM [inhibitor, single point], O=C(NCc1ccccn1)C1CCC(=O)N1C1CCCCC1 (stereo not drawn) 7.08 µM [inhibitor, single point], O=C1/C(=C\c2cccnc2)CN(Cc2ccccc2)C/C1=C\c1cccnc1 31.6 µM [inhibitor, partial curve], CCCC[C@@H]1CNC(=S)N1CCCc1cc(OC)c(OC)c(OC)c1 39.8 µM [inhibitor, partial curve], Cc1cc(C#Cc2c(-c3ccccc3)n(C)c3ccccc23)ccc1F 35.5 µM [inhibitor, partial curve], O=Cc1ccc2ccc3cccnc3c2n1 17.8 µM [inhibitor, partial curve], Cc1c(C(=O)Nc2ccccc2)sc2nc(-c3cc4ccccc4oc3=O)[nH]c(=O)c12 28.2 µM [inhibitor, single point], O=C(NCC(c1ccc2c(c1)OCO2)N1CCN(c2ccccc2)CC1)C(=O)Nc1ccccc1 (stereo not drawn) 35.5 µM [inhibitor, single point], NS(=O)(=O)c1cccc(NC(=O)COC(=O)/C=C/c2nc3ccccc3s2)c1 63.1 µM [inhibitor, partial curve, poor fit], O=C(c1cn(-c2ccccc2)nc1-c1cccnc1)N1CCCC(C(F)(F)F)C1 (stereo not drawn) 0.282 µM [inhibitor, full curve], Clc1ccc(SCc2cc(Cl)nc(-c3ccccc3)n2)cc1 28.2 µM [inhibitor, partial curve], CC1NC(=O)c2cc3ccccc3cc2-n2c1nc1cc(Cl)ccc1c2=O (stereo not drawn) 0.251 µM [inhibitor, full curve, poor fit], NCCCC[C@H](NC(=O)C1CCNCC1)c1nnc([C@@H](N)CO)o1 12.6 µM [inhibitor, partial curve, poor fit], O=C(CSc1nccn1Cc1ccc(F)cc1)NC1CCCC1 11.2 µM [inhibitor, partial curve, poor fit], CCOc1ccc(NC(c2ccc(Cl)cc2)c2nnc(-c3cccc(F)c3)o2)cc1 (stereo not drawn) 0.447 µM [inhibitor, full curve, poor fit], CC1(C)SC(=S)N(/N=C/c2ccc(O)cc2)C1N(O)C(=O)Nc1ccc([N+](=O)[O-])cc1 (stereo not drawn) 2.51 µM [inhibitor, full curve, poor fit], Cc1cc(=O)oc2cc(OC(C)C(=O)NC3CCCC3)ccc12 (stereo not drawn) 0.251 µM [inhibitor, full curve, poor fit], CCn1c(C)nnc1SCC(=O)Nc1nccs1 8.91 µM [inhibitor, full curve], CCCCNC(=O)c1onc(CSc2cccc3ccccc23)c1C(=O)O 14.1 µM [inhibitor, partial curve, poor fit], O=C(NC1CC(=O)N(c2cccc(F)c2)C1)c1ccc(S(=O)(=O)N2CCCCC2)cc1 (stereo not drawn) 0.708 µM [inhibitor, full curve], CN1CC(=O)N2[C@H](c3ccc4c(c3)OCO4)c3[nH]c4ccccc4c3C[C@@H]2C1=O 89.1 µM [inhibitor, partial curve, poor fit], FC(F)(F)Sc1ccc(NC(=S)NCc2ccccc2)cc1 10 µM [inhibitor, full curve, poor fit], CC(=O)Nc1c(C)nn(-c2ccccc2)c1N1CCC(C(=O)Nc2ccc(C)cc2Cl)CC1 11.2 µM [inhibitor, partial curve, poor fit], CCN1CC2=C(OC(N)=C(C#N)C2c2cccs2)/C(=C/c2cccs2)C1 (stereo not drawn) 12.6 µM [inhibitor, partial curve]

Activity change, negative = inhibition, inactive:
NC(=NCCc1c[nH]c2ccccc12)NC(=O)c1ccc(F)cc1 -20.1%, CCc1nc(N)nc(N)c1-c1ccc(Cl)cc1 14.4%, CCN(C(=O)CSc1nc(-c2ccccc2)no1)c1cccc(C)c1 -16.5%, O=C1c2ccccc2C2=Nc3ccccc3SC(c3cccc(F)c3)C12 (stereo not drawn) -15.4%, CCOC(=O)c1ccc(NC(=O)c2nn(C)cc2Br)cc1 -1.07%, CCc1ccc2oc(C(=O)Nc3cc(Cl)ccc3OC)cc(=O)c2c1 -22.4%, OCCN1CCN(C(=S)c2ccc(Br)cc2)CC1 -2.34%, CC1(C)NS(=O)(=O)Oc2ccccc21 -23.2%, O=C(Nc1cc(Cl)ccc1O)c1snnc1-c1ccccc1 -23.2%, CC1=CC2=C(C=O)C(=O)C(C)(O)C(O)C2=CO1 (stereo not drawn) -22.1%, CCOC(=O)c1c(NC(=O)CSc2nnc(C)c(=O)[nH]2)sc(C)c1-c1ccc(C)cc1 -26.5%, O=C(Nc1ccc(S(=O)(=O)Nc2nccc(C3Cc4ccccc4C(=O)O3)n2)cc1)c1ccccc1 (stereo not drawn) -9.07%, BrC(=C\c1ccccc1)/C=N/N1CCN(c2ccccc2)CC1 -3.59%, O=C(Nc1ccccc1F)NC1CCCCCCC1 -8.96%
